The list shows a part of the results. Further columns of the screen follow, without active or inactive calls. Most of these compounds were active or inconclusive in the main read-out, so they are no random draw. Words in brackets tell the shape of the fitted curve; partial curves, single points and poor fits give uncertain potencies.

A short description of this test: qHTS Assay for Identifying the Cell-Membrane Permeable IMPase Inhibitors. Conditions: CHO-M1 cells, IP1 accumulation, HTRF TR-FRET ratio; measured here: donor channel 620 nm AC50.
In the case of `CCOc1ccc(-c2cc3nc(C4CCN(C(=O)OC(C)(C)C)CC4)c(C(=O)O)cn3n2)cc1`, the AC50 is 1 µM [falling, partial curve]. The value for `CC1CCCCN1C(=O)CSc1nc(-c2ccccc2)cc(=O)[nH]1` (configuration not stated) was 0.00501 µM [falling, full curve]; that for `N#CC1=C2SCC(O)(c3ccccc3)N2C(=O)CC1c1cccs1` (configuration not stated) was 10 µM [falling, partial curve, poor fit]; that for `COC(=O)c1ccc(-c2nc3ccc(C)cc3o2)cc1` was 31.6 µM [rising, single point]. The value for `CCCCN1CCCC[C@H]1C(=O)Nc1c(C)cccc1C` was 0.01 µM [falling, full curve, poor fit]; that for `N#Cc1ccc(NC(=O)C2CC(c3ccc(F)cc3)=NO2)cc1` (configuration not stated) was 0.0251 µM [rising, full curve, poor fit]; that for `Cc1ccc(C2CC(c3ccccc3)=NN2C(=O)CSc2nnc(-c3ccc(Cl)cc3)o2)o1` (configuration not stated) was 0.794 µM [falling, single point].

Take `COc1ccccc1N1CCN(C(=O)c2ccc(N3CCCC3=O)cc2)CC1`: the AC50 is 3.16 µM [falling, full curve, poor fit]. Consider `CCCc1cc(=O)oc2c(CN3CCCC3)c(O)ccc12`, for which the AC50 was 15.8 µM [rising, single point].

Consider `O=C1C2C(C(=O)N1CC1CCCO1)C1C=CC2C12CC2` (configuration not stated), for which the AC50 is 0.0316 µM [falling, full curve, poor fit]. As for `COc1ccc(Nc2nc(N)nc(CSc3nc4cc(OC)ccc4s3)n2)cc1`, the AC50 was 35.5 µM [falling, single point]. In the case of `O=C(CSc1nc2ccccc2c(=O)[nH]1)c1ccccc1`, the AC50 was 4.47 µM [falling, partial curve]. The value for `Cc1onc(-c2ccccc2)c1C(=O)Nc1ccc(S(=O)(=O)NC2=NCCCCC2)cc1` was 0.1 µM [falling, full curve, poor fit]; that for `Cn1c(=O)c(=O)n(C)c2cc(NC(=O)c3ccccc3Br)ccc21` was 3.98 µM [falling, partial curve]; that for `COc1ccc(-c2cn3c(C)c(C(=O)Nc4ccncc4)sc3n2)cc1` was 31.6 µM [rising, single point].

Consider `CC(C)(CN1CCCCC1)NS(=O)(=O)c1ccc(Cl)cc1`, for which the AC50 was 0.398 µM [falling, full curve, poor fit]. Next, `COc1ccc(CNc2nc(NCc3ccc(OC)c(OC)c3)n(C(=O)c3cccs3)n2)cc1OC`: 0.631 µM [rising, full curve]; `CCCCOC(=O)CSc1ncnc2sc3c(c12)CCC(C)C3` (configuration not stated): 35.5 µM [rising, single point]; `CCOc1cc(S(=O)(=O)N2CCC(Cc3ccccc3)CC2)c(OCC)cc1-n1cnnn1`: 6.31 µM [falling, single point].

As for `CCC(C)(C)n1nnnc1CN1CCN(C(c2ccccc2)c2ccccc2)CC1`, the AC50 was 14.1 µM [rising, single point].

In the case of `COc1ccc(C2N(c3cc(C)on3)C(=O)C3CCCN32)cc1OC` (configuration not stated), the AC50 is 1 µM [rising, partial curve, poor fit]. Next, `CC(=O)c1ccc(NC(=O)c2cn(-c3ccccc3)nc2-c2ccncc2)cc1`: 31.6 µM [rising, single point]; `COc1ccccc1OCCSc1nc2ccccc2c(=O)[nH]1`: 2.24 µM [rising, single point]. Next, `COCc1cc(=O)n2[nH]c(C)cc2n1`: 0.126 µM [rising, single point]; `CCn1cnc2sc(C(=O)N3CCN(Cc4ccc5c(c4)OCO5)CC3)c(C)c2c1=O`: 0.02 µM [rising, full curve, poor fit]; `O=C1Nc2ccccc2N(O)N1c1cc(-c2cccc(Cl)c2)no1`: 31.6 µM [falling, single point].

On to `Cc1ccc(NCCC(=O)c2cccc([N+](=O)[O-])c2)c(C)c1`, for which the AC50 is 0.794 µM [falling, full curve, poor fit]. Next, `CCOc1ccccc1-c1n[nH]c(=S)o1`: 12.6 µM [rising, single point]; `CCCn1c(=O)c(Cc2ccccc2)c(O)c2ccccc21`: 0.01 µM [rising, full curve, poor fit]; `CC1Cc2cc(/C(O)=C3/C(=O)C(=O)N(CCCn4ccnc4)C3c3ccco3)ccc2O1` (configuration not stated): 0.794 µM [rising, partial curve, poor fit]. As to `CCNc1nc(C)c2cc(Br)c(=O)n(CC)c2n1`, the AC50 is 1.26 µM [rising, full curve]. The value for `Cc1ccc(NCC(=O)N/N=C/c2cc3ccccc3nc2Cl)cc1` was 0.126 µM [rising, full curve]; that for `CCOC(=O)c1ccccc1NC(=O)CC1SC(=NC)N(C)C1=O` (configuration not stated) was 5.01 µM [falling, single point]; that for `CCOC(=O)c1ccc(NC(=O)CSc2nc(-c3ccc(OC)cc3)cc(C(F)(F)F)c2C#N)cc1` was 0.0355 µM [falling, full curve]. The value for `Cc1ccc(NC(=O)Nc2cccc(C)n2)cc1` was 0.708 µM [falling, single point]; that for `CC(C)NC(=O)c1sc2nc3c(c(-c4cccs4)c2c1N)CN(C)CC3` was 12.6 µM [falling, partial curve]; that for `O=C(CCS(=O)(=O)c1cccc2nonc12)N1CC(=O)N(CCc2ccccc2)C(=O)C1` was 5.01 µM [falling, partial curve, poor fit].

As for `CCCC(=O)Nc1ccc(Cl)c(NC(=O)c2ccco2)c1`, the AC50 is 0.2 µM [falling, full curve]. On to `Cc1ccc(Cn2c(C)cc3c(c2=O)C(c2cccs2)C(C#N)=C(N)O3)cc1` (configuration not stated), for which the AC50 is 31.6 µM [falling, single point]. As to `Cc1c(Cl)cccc1-n1ccnc1SCC(=O)O`, the AC50 was 0.00398 µM [rising, full curve, poor fit]. Next, `CC(=O)Nc1nc(C)c(-c2csc(Nc3ccc(O)cc3)n2)s1`: 35.5 µM [falling, single point]; `CC(C)Sc1n[nH]c2nc3c(c(=O)n12)C1(CCCC1)Cc1ccccc1-3`: 15.8 µM [falling, single point]; `Cc1cccc(-n2ncc3c(N4CCCC4)ncnc32)c1`: 0.0316 µM [falling, full curve].

On to `CCOC(=O)c1cc(OC(=O)c2ccc(OC)cc2)n(-c2ccccc2)n1`, for which the AC50 is 35.5 µM [rising, single point]. The value for `COc1ccc(-c2nc(CS(=O)(=O)CC(=O)NCCc3cc(OC)ccc3OC)c(C)o2)cc1` was 3.98 µM [falling, single point]. The value for `O=C(NCCCn1ccnc1)c1ccc(Br)c(S(=O)(=O)N2CCOCC2)c1` was 12.6 µM [rising, partial curve]; that for `CS(=O)(=O)N(CC(=O)NCCSCc1ccccc1)c1cc(C(F)(F)F)ccc1Cl` was 35.5 µM [falling, single point]; that for `Cc1cc(NC(=O)CCC(=O)N(CC(=O)NC2CCCC2)Cc2ccccc2Cl)no1` was 31.6 µM [falling, single point].

Take `C=CCc1ccccc1OCC(O)CN(C(C)C)C(C)C` (configuration not stated): the AC50 was 0.316 µM [rising, full curve, poor fit]. Next, `Fc1ccccc1Cn1nnc2c(NCCc3ccccn3)ncnc21`: 20 µM [falling, single point]; `CCOC(=O)c1nn(-c2ccc(Cl)cc2)c2nc(-c3ccc(C)cc3)c(C#N)c(=O)n12`: 31.6 µM [rising, single point]. On to `CCCCCc1ccc(-c2ccc(C(=O)Oc3ccc(C(=O)OC)cc3)cc2)nc1`, for which the AC50 is 0.501 µM [falling, full curve]. Take `COc1ccc(CNc2oc(-c3cccc4ccccc34)nc2C#N)cc1`: the AC50 is 11.2 µM [rising, partial curve, poor fit]. The value for `COC(=O)c1ccc(NC(=O)CSc2nnc(CNc3ccc(F)cc3)n2C)cc1` was 5.01 µM [rising, single point].

For `CCOc1ccc(C(=O)NC(=S)Nc2ccccn2)cc1[N+](=O)[O-]`, the AC50 was 3.16 µM [falling, partial curve, poor fit]. For `Cc1nc2c(C)cccc2cc1C(=O)N/N=C/c1ccc(N(C)C)cc1`, the half-maximal activity concentration (AC50) was 31.6 µM [falling, single point]. `COC(=O)c1ccccc1NC(=O)Cn1c(SC)c(F)cnc1=O`: the AC50 was 22.4 µM [falling, single point].

Turning to `CC(O)CNc1ncnc2nc[nH]c12` (configuration not stated), the half-maximal activity concentration (AC50) was 0.398 µM [rising, partial curve, poor fit]. Regarding `CC(=O)c1sc(NC(=O)C2COc3ccccc3O2)nc1C` (configuration not stated), the AC50 was 35.5 µM [rising, single point].

`CC(C)c1nc(-c2ccccn2)no1`: the half-maximal activity concentration (AC50) is 0.0631 µM [rising, full curve, poor fit]. Next, `Cc1ccc(C(=O)Nc2c(C(=O)NCc3ccco3)cnn2-c2ccccc2)cc1`: 6.31 µM [falling, full curve]; `Cc1cc(C)c2nc(-c3ccccn3)cc(C(=O)NCc3ccco3)c2c1`: 6.31 µM [falling, full curve]; `Nn1c(SCC(=O)Nc2ccccc2F)nnc1-c1cccnc1`: 0.794 µM [rising, full curve, poor fit].

With `CCOC(=O)CSc1cc(=O)n(CC)c2ccccc12`, the AC50 was 12.6 µM [rising, partial curve].

For `CCC(Sc1ccc(C(=O)O)cc1)C(=O)O` (configuration not stated), the AC50 was 0.0631 µM [falling, full curve, poor fit]. The value for `COCCCN1C(=O)C(=O)/C(=C(/O)c2ccc3c(c2)CC(C)O3)C1c1cccnc1` (configuration not stated) was 12.6 µM [rising, partial curve]; that for `O=C(O)C1CCCN1C(=O)Oc1ccccc1` (configuration not stated) was 0.0501 µM [falling, full curve].
